Measurements published in patent publication EP4725967A1 (Nanjing Probio Biotech Co., Ltd., dated 2026).
No constants are given. Whether binding was seen depends on the method and setting. Some results given as binding are weak or reduced against the parent protein; the word gives no strength.

By UniProt entry, the sequences of proteins in these tests, tags left out. Where a name states a change or a piece, a line headed by the entry shows the natural chain unless it says otherwise. Chains listed by the source or under a name are the forms on record and can include a tag or linker.
monkey CCR8 (monkey (cyno)) (G7NYJ2, form named): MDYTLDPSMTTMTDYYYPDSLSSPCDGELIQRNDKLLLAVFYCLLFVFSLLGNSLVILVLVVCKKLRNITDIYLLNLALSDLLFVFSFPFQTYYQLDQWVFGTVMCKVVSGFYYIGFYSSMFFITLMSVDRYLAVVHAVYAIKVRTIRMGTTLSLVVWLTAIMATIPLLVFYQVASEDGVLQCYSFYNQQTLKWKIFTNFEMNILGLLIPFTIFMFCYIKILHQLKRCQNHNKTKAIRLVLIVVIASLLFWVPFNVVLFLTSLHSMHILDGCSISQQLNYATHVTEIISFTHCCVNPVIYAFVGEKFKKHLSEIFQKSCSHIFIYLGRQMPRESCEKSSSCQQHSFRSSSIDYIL
UniProt P51685: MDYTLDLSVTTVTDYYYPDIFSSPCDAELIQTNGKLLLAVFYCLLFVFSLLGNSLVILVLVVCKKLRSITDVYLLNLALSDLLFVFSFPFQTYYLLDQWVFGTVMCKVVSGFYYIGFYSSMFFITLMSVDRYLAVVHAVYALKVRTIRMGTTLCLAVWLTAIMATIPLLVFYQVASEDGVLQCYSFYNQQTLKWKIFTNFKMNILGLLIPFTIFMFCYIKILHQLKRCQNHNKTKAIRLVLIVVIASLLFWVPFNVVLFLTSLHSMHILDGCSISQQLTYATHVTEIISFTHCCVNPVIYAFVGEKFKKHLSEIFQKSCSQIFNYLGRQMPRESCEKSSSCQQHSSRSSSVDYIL

Key:
[1] = target: monkey CCR8 (monkey (cyno)) (UniProt G7NYJ2); test: flow cytometry on HEK293/cyno-CCR8 cells, chimeric antibody (FIG. 2)
[2] = target: monkey CCR8 (monkey (cyno)) (UniProt G7NYJ2); test: flow cytometry, hybridoma supernatant on HEK293/cyno CCR8 cells
[3] = target: monkey CCR8 (monkey (cyno)) (UniProt G7NYJ2); test: flow cytometry on HEK293/cyno-CCR8 cells (FIG. 5B)
[4] = target: T1, human CCR8 (human, UniProt P51685 1-355); test: flow cytometry on HEK293/hu-CCR8 cells (FIG. 5A)
T1 construct: whole, on cells; also called hu-CCR8; CC chemokine receptor 8

binding [1]	binding [2]	binding [3]	binding [4]	Binder
–	–	binds	binds	humanized antibody 125C1E6-VH1.1-VL1 (antibody, human IgG1, kappa, V domains shown) VH: EVQLVESGGGLVQPGGSLKLSCAASGFNFNAYAMNWVRQASGKGLEWVGRIRSKSNYYATYYADSVKDRFTISRDDSKNTAYLQMNSLKTEDTAVYYCVRQGYFGTRESRRYFDVWGQGTLVTVSS VL: EIVLTQSPGTLSLSPGERATLSCKASESVGSYVSWYQQKPGQAPRLLIYGASTRYTGIPARFSGSGSGTDFTLTISSLEPEDFAVYYCGQNYIYPLTFGGGTKLEIKR
–	–	binds	binds	humanized antibody 125C1E6-VH3-VL1 (antibody, human IgG1, kappa, V domains shown) VH: EVQLVESGGGLVQPGRSLRLSCTASGFNFNAYAMNWVRQAPGKGLEWVGRIRSKSNYYATYYADSVKDRFTISRDDSKSIAYLQMNSLKTEDTAVYYCVRQGYFGTRESRRYFDVWGQGTLVTVSS VL: EIVLTQSPGTLSLSPGERATLSCKASESVGSYVSWYQQKPGQAPRLLIYGASTRYTGIPARFSGSGSGTDFTLTISSLEPEDFAVYYCGQNYIYPLTFGGGTKLEIKR

Continued, binder first:

Binder	binding [1]	binding [2]	binding [3]	binding [4]
chimeric antibody 224E9A3 (antibody, human IgG1, kappa, V domains shown, Murine variable regions on human IgG1/kappa) VH: EVQLVESGGGLVQPKGSLKLSCAASGFTFNTYAMYWVCQAPGKGLEWVARIRSKSNNYATYYADSVKDRFTISRDDSQSMLYLQMNNLKTEDTAMYYCVRGGRGNYLYAMDYWGQGTSVTVSS VL: DIVMTQAAPSVPVTPGESVSISCRSSKSLLHSNGNTYLYWFLQRPGQSPQLLIYRMSNLASGVPDRFSGSGSGSAFTLRISRVEAEDVGVYYCMQHLEYPFTFGSGTKLEIKR	binds	–	–	–
antibody produced by monoclonal clone 224E9A3 (murine, hybridoma) (antibody, V domains shown, Mouse antibody in hybridoma supernatant) VH: EVQLVESGGGLVQPKGSLKLSCAASGFTFNTYAMYWVCQAPGKGLEWVARIRSKSNNYATYYADSVKDRFTISRDDSQSMLYLQMNNLKTEDTAMYYCVRGGRGNYLYAMDYWGQGTSVTVSS VL: DIVMTQAAPSVPVTPGESVSISCRSSKSLLHSNGNTYLYWFLQRPGQSPQLLIYRMSNLASGVPDRFSGSGSGSAFTLRISRVEAEDVGVYYCMQHLEYPFTFGSGTKLEIK	–	binds	–	–
